Experimental data: the supplement of paper PMC10331698
± gives the standard deviation of the averaged measurements. Most entries show no effect beyond the scatter of the controls.

How the values were obtained:
Assay in all cases: level (log10 ratio to DMSO vehicle control); higher = higher biomarker level / cell amount than vehicle control
[1] = compound: C=CC(=O)OCC(F)(F)C(F)(F)C(F)(F)COC(=O)C=C [1H,1H,5H,5H-Perfluoro-1,5-pentanediol diacrylate]; conditions: 2200 nM; in DMSO
Method: (§1)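 BioMAP Diversity Plus panel of 12 human primary cell co-culture systems (3C, 4H, LPS, SAg, BT, BF4T, BE3C, CASM3C, HDF3CGF, KF3CT, MyoF, Mphg). Compounds were added 1 h before stimulation and left for 24 h (MyoF 48 h; BT 72 h for soluble read-outs or 6 d for IgG). Biomarkers were read by ELISA, cytotoxicity by SRB, PBMC viability and proliferation by Alamar Blue. Each well value was divided by the mean of 8 DMSO control wells on the same plate and log10 transformed; duplicate blinded samples were tested at 4 concentrations.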

[2] = compound: C=CC(=O)OCCC(F)(F)C(F)(F)C(F)(F)C(F)(F)C(F)(F)C(F)(F)C(F)(F)C(F)(F)F [8:2 Fluorotelomer acrylate]; conditions: 2200 nM; in DMSO
Method: as §1

[3] = compound: C=CC(=O)OCCC(F)(F)C(F)(F)C(F)(F)C(F)(F)F [2-(Perfluorobutyl)ethyl acrylate]; conditions: 2200 nM; in DMSO
Method: as §1

[4] = compound: FC(F)(F)C(F)(C(F)(F)F)C(F)(F)C(F)(F)CC1CO1 [3-(Perfluoro-3-methylbutyl)-1,2-propenoxide]; conditions: in DMSO
Method: as §1

Perfluoro-1-iodohexane = compound: FC(F)(F)C(F)(F)C(F)(F)C(F)(F)C(F)(F)C(F)(F)I [Perfluoro-1-iodohexane]; conditions: in DMSO
Method: as §1

[5] = compound: FC(F)(I)C(F)(F)C(F)(F)C(F)(F)C(F)(F)C(F)(F)I [1,6-Diiodoperfluorohexane]; conditions: 2200 nM; in DMSO
Method: as §1

[6] = compound: O=C(Cl)C(F)(F)C(F)(F)C(F)(F)C(=O)Cl [Hexafluoroglutaryl chloride]; conditions: 2200 nM; in DMSO
Method: as §1

[7] = compound: O=C(O)C(F)(F)C(F)(F)C(F)(F)C(F)(F)C(F)(F)C(F)(F)C(F)(F)C(F)(F)C(F)(F)C(F)(F)C(F)(F)C(F)(F)C(F)(F)F [Perfluorotetradecanoic acid]; conditions: in DMSO
Method: as §1

[8] = compound: O=C(O)C=C(C(F)(F)F)C(F)(F)F [3,3-Bis(trifluoromethyl)-2-propenoic acid]; conditions: in DMSO
Method: as §1

[9] = compound: O=S(=O)(O)C(F)(F)C(F)(F)C(F)(F)C(F)(F)C(F)(F)C(F)(F)F [Perfluorohexanesulfonic acid]; conditions: 2200 nM; in DMSO
Method: as §1

[10] = compound: O=S(=O)(O)CCC(F)(F)C(F)(F)C(F)(F)C(F)(F)F [4:2 Fluorotelomer sulfonic acid]; conditions: 2200 nM; in DMSO
Method: as §1

Hexafluoroamylene glycol = compound: OCC(F)(F)C(F)(F)C(F)(F)CO [Hexafluoroamylene glycol]; conditions: 2200 nM; in DMSO
Method: as §1

[11] = compound: OCCCC(F)(F)C(F)(F)C(F)(F)C(F)(F)C(F)(F)C(F)(F)C(F)(F)F [7:3 Fluorotelomer alcohol]; conditions: 2200 nM; in DMSO
Method: as §1

| Test System | level (log10) [1] | level (log10) [2] | level (log10) [3] | level (log10) ([4]; 740 nM) | level (log10) ([4]; 2200 nM) | level (log10) (Perfluoro-1-iodohexane; 2200 nM) | level (log10) (Perfluoro-1-iodohexane; 6700 nM) | level (log10) (Perfluoro-1-iodohexane; 20000 nM) | level (log10) (Perfluoro-1-iodohexane; 60000 nM) | level (log10) [5] | level (log10) [6] | level (log10) ([7]; 740 nM) | level (log10) ([7]; 2200 nM) | level (log10) ([8]; 2200 nM) | level (log10) ([8]; 6700 nM) | level (log10) ([8]; 20000 nM) | level (log10) ([8]; 60000 nM) | level (log10) [9] | level (log10) [10] | level (log10) (Hexafluoroamylene glycol) | level (log10) [11] |
| --- | --- | --- | --- | --- | --- | --- | --- | --- | --- | --- | --- | --- | --- | --- | --- | --- | --- | --- | --- | --- | --- |
| HDF3CGF:M-CSF | -0.278 ± 0.089 | -0.0075 ± 0.012 | 0.0045 ± 0.0035 | 0.022 ± 0.076 | -0.0255 ± 0.05 | 0.033 ± 0.013 | 0.0155 ± 0.019 | 0.024 ± 0.0028 | -0.021 ± 0.034 | 0.0005 ± 0.0021 | 0.0085 ± 0.03 | 0.003 ± 0.011 | 0.051 ± 0.03 | -0.003 ± 0.02 | -0.0595 ± 0.0078 | -0.072 ± 0.042 | -0.051 ± 0.014 | 0.0085 ± 0.015 | -0.0395 ± 0.053 | -0.0395 ± 0.04 | 0.0225 ± 0.032 |
| 4H:SRB | 0.012 ± 0.013 | -0.0055 ± 0.0078 | 0.0135 ± 0.029 | 0.016 ± 0.018 | 0.0105 ± 0.028 | 0.0015 ± 0.016 | -0.0065 ± 0.011 | -0.008 ± 0.0042 | -0.0105 ± 0.0035 | 0.012 ± 0.011 | 0.0025 ± 0.0078 | -0.003 ± 0.017 | -0.0325 ± 0.00071 | 0.0035 ± 0.0092 | -0.008 ± 0.0042 | -0.026 ± 0.027 | -0.0615 ± 0.015 | -0.012 ± 0.014 | -0.0005 ± 0.0064 | -0.009 ± 0.018 | -0.001 ± 0.021 |
| HDF3CGF:PAI-I | -0.0255 ± 0.037 | -0.009 ± 0.037 | 0.0005 ± 0.036 | 0.018 ± 0.027 | -0.005 ± 0.0057 | -0.016 ± 0.065 | 0.017 ± 0.011 | 0.005 ± 0.031 | -0.041 ± 0.014 | -0.0145 ± 0.056 | -0.0385 ± 0.086 | 0.0485 ± 0.0021 | 0.0395 ± 0.015 | -0.008 ± 0.0099 | -0.0265 ± 0.015 | -0.069 ± 0.0099 | -0.153 ± 0.025 | 0.004 ± 0.058 | 0.0225 ± 0.061 | 0.0025 ± 0.052 | -0.048 ± 0.023 |
| HDF3CGF:Collagen III | -0.165 ± 0.096 | 0.0345 ± 0.05 | -0.006 ± 0.0042 | -0.011 ± 0.0099 | -0.028 ± 0.054 | -0.0075 ± 0.081 | -0.0405 ± 0.066 | -0.0755 ± 0.0021 | -0.178 ± 0.13 | -0.0985 ± 0.019 | 0.005 ± 0.034 | -0.037 ± 0.038 | -0.0905 ± 0.023 | -0.0485 ± 0.037 | -0.0905 ± 0.012 | -0.0985 ± 0.029 | -0.0635 ± 0.069 | 0.0045 ± 0.011 | -0.0255 ± 0.091 | -0.0335 ± 0.04 | 0.0125 ± 0.06 |
| BT:B cell Proliferation | -0.031 ± 0.035 | 0.021 ± 0.0071 | 0.008 ± 0.013 | 0.0135 ± 0.016 | -0.026 ± 0.0085 | 0.003 ± 0.031 | -0.011 ± 0.054 | -0.008 ± 0.011 | -0.0135 ± 0.025 | -0.009 ± 0.025 | 0.0105 ± 0.0092 | -0.011 ± 0.0099 | -0.0015 ± 0.0078 | -0.0005 ± 0.026 | -0.0145 ± 0.0021 | -0.0385 ± 0.0035 | -0.121 ± 0.0064 | -0.0025 ± 0.039 | 0.058 ± 0.0057 | 0.0055 ± 0.0064 | 0.0225 ± 0.0078 |
| MyoF:Decorin | -0.023 ± 0.0028 | -0.0085 ± 0.019 | 0.0145 ± 0.022 | 0.017 ± 0.0099 | 0 ± 0.0057 | 0.016 ± 0.02 | 0.0185 ± 0.011 | 0.023 ± 0.0042 | -0.012 ± 0.044 | 0.005 ± 0.041 | -0.0085 ± 0.04 | 0.0305 ± 0.023 | 0.034 ± 0.0014 | -0.0075 ± 0.0064 | -0.0275 ± 0.0021 | -0.043 ± 0.024 | -0.057 ± 0.045 | -0.024 ± 0.028 | -0.0055 ± 0.011 | -0.0095 ± 0.005 | 0.043 ± 0.035 |
